At least one compound was matched to its structure with a doubt left.
Key:
Type in all cases: cell-based
[1] = system: TRE promoter (TRE-Rn reporter); assay: Doxycycline-repressible TRE-Renilla reporter in HeLa cells; details: 2 ug/ml doxycyline; 2, 6 and 24 hrs; lysis buffer with DTT; FIG. 11D
CRE (CRE-FF reporter) = assay: CRE-FF reporter assay in 293T cells; details: 10 uM forskolin or 10 ng/ml TNF-alpha, four hours; FIG. 9B
[2] = system: NFkB-binding sites (NFkB-Ga reporter); assay: NFkB-Ga reporter assay in 293T cells; details: 10 uM forskolin or 10 ng/ml TNF-alpha, four hours; FIG. 9A

Structure (SMILES) | Renilla luciferase activity, +doxycycline relative to −doxycycline [1] | induction of CRE-FF luciferase activity (CRE (CRE-FF reporter)) | induction of NFkB-Ga luciferase activity [2]
C[C@H]1c2cccc(O)c2C(=O)C2=C(O)[C@]3(O)C(=O)C(C(N)=O)=C(O)[C@@H](N(C)C)[C@@H]3[C@@H](O)[C@@H]21 [doxycycline] | decline in the cell lysate values | – | –
C=C[C@@]1(C)CC(=O)[C@]2(O)[C@@]3(C)[C@@H](O)CCC(C)(C)[C@@H]3[C@H](O)[C@H](OC(C)=O)[C@@]2(C)O1 [forskolin] | – | induced strongly | but not forskolin

Reference: US11078519B2, “Bioluminescent assays utilising secreted luciferases” (GENE STREAM PTY LTD., priority 2006, dated 2021)
